# For at least one compound, name, drawing or mass did not settle the structure.
# System: neural stem cells
# Assay: Cell viability with PEP 1 and PI3K-inhibitor LY294002
# Format: cell-based, rat
# Details: treated with LY294002, FIG. 17
smiles,measurement,value
O=c1cc(N2CCOCC2)oc2c(-c3ccccc3)cccc12 [LY294002],cell viability increased by PEP 1,decreased
